# From patent publication US5972643
# For some assays here: Results from cells or extracts need not show a direct contact. For some assays here: Protein sequences can lack the tags named with them. For some assays here: For at least one entry, the source does not settle the construct or the ends of the probe. For some assays here: Negatives hold for the conditions tested.
# Columns and labels:
# Assay in all cases: EMSA
# [1] = biological target: CTCF Zn-finger domain lacking C-terminal fingers 8-11 deletion of Zn fingers 8-11 (UniProt Q08705); details: fingers 8-11 absolutely required for P2 site; protein translated in vitro; label: 32P
# [2] = biological target: CTCF Zn-finger domain lacking N-terminal fingers 1 and 2 deletion of Zn fingers 1-2 (UniProt Q08705); details: fingers 1 and 2 dispensable for P2 site; protein translated in vitro; label: 32P
# [3] = test system: Sp1-like factors in HD3 nuclear extract (Gallus gallus); details: protein in an extract; label: 32P; only the site is given
# [4] = test system: poly(dG)-binding protein in HD3 nuclear extract (Gallus gallus); details: protein in an extract; label: 32P; only the site is given
# [5] = biological target: T1, CTCF in HD3 nuclear extract (Gallus gallus) (UniProt Q08705); details: agarose gel EMSA; protein in an extract; label: 32P; only the site is given
# T1 sequence (limits assumed): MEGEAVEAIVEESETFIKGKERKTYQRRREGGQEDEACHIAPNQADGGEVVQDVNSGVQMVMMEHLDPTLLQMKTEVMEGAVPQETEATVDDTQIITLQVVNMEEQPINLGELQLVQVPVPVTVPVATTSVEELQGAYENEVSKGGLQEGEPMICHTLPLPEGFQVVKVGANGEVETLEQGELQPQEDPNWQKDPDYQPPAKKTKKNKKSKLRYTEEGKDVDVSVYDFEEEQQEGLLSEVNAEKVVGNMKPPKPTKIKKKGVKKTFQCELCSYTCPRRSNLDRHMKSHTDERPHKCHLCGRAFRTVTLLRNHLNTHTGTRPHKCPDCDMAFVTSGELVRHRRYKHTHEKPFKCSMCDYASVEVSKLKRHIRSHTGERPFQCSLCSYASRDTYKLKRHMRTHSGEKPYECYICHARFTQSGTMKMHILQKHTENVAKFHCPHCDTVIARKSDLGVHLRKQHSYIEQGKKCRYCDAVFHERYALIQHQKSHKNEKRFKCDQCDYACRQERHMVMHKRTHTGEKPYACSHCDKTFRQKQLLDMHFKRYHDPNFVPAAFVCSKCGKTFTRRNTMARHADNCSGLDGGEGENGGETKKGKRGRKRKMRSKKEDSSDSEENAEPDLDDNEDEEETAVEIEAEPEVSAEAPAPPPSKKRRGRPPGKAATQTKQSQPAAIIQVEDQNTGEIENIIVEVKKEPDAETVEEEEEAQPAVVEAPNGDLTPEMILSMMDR
Sequence,binding result [1],binding result [2],binding result [3],binding result [4],binding result [5]
AAGAACGGAGGGAGGGATCGCGCTGAGTATAAAAGCCGGTTTTCGGGGCTTTATCTAACTCGCTGTAGTAATTCCAGCGAGAGGCAGAGGGAGCGAGCGGGCGGCCGGCTAGGGTGGAAGAGCCGGGCGAGCAGAGCTGCGCTGCGGGCGTCCTGGGAAGGGAGATCCGGAGCGAAT (double strand) [human c-myc fragment A],no binding,binds,,,
TACTCGGGGGGGGGCACGGAGCCCCTCGGCCGCCCCCTCGCGGCGCGCCCTCCCCGCTCA (double strand) [152 bp HindIII-ApaI chicken c-myc fragment wild type],,,binds,binds,binds
